From article doi:10.1101/2023.05.05.539533 (bioRxiv, 2023)
No constants are given. Whether binding was seen depends on the method and setting. In cells and extracts the contact can be indirect. Binding can be weak; no strength is given.

Biological target: T1, Phytophthora suppressor of RNA silencing 2 (PSR2), expressed in transgenic Arabidopsis line PSR2-5 (P. sojae) (UniProt E0W4V5)
T1 sequence: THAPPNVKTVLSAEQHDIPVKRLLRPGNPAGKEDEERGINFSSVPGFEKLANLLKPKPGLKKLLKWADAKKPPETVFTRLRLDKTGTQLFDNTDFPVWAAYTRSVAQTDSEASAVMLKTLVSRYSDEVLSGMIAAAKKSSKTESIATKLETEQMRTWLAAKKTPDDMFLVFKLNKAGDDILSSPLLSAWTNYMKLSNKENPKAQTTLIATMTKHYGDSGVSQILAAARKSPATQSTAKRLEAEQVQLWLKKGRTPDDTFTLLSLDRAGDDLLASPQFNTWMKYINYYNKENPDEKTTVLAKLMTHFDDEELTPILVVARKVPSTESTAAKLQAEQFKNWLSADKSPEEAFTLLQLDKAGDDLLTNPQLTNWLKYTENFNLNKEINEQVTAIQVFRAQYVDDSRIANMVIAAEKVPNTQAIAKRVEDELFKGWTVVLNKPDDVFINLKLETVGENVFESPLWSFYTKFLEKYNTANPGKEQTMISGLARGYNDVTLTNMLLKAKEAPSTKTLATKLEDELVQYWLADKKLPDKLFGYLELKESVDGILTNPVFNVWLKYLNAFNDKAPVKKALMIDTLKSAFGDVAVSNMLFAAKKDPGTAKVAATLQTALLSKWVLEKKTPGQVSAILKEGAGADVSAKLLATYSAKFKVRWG
Test: co-IP

## PDF2 (PP2A A subunit), endogenous in Arabidopsis (from UniProt Q38951)
  binding: binds

## PDF1 (PP2A A subunit), endogenous in Arabidopsis (from UniProt Q38950)
  binding: binds
